From paper PMC10163288 come the findings set out here.

The list shows a part of the results.

B1: il2ra_site2_3nfp_sap_22_mot_HHH_b2_01049_000000044_0001_19_35_H_._HHH_b1_00008_0001_0000100001_0000001_0_0001_af2pred_0001_af2pred (protein)
chain: SSSSEETEEFAREVVERLVEEYKLSEEQQRLLELAAELALEAGADEEYIESWLELLARLLSSSSS
B2: il2ra_site2_2erj_normal_mot_HHH_b1_01555_af2_000000123_0001_22_39_H_._HHH_b1_02219_af2_0001_0000100006_0000001_0 (protein)
chain: SSSSSQREEVLEAARELVEEAEEKGDKELLELLERFVELTLEEVGDPKLEELLEEIRKLLSSSSS
B3: il2ra_site1_3nfp_normal_mot_66bb1f637706d7249e1dd387c51866da_0001_1_000000092_0001_54_65_H_._ce8578411c818e85008b652dcd9ad55d_0001_1_af2_0001_0000300006_0000001 … (protein)
chain: SEEEEAEREAKEKGLVSPKAIKLAKRFIEEAQRQLPPEEALREVLRILRRAGDPEAALFVELVLR
B4: il2ra_site1_3nfp_normal_mot_HHH_b1_05523_000000054_0001_1_19_H_._HHH_b2_04834_af2_0001_0000200024_0000001_0 (protein)
chain: SSSSDEHEELERLLREAFELAKRGDEEEAREVLEEAIKLAEELNSREHLRSLEAAVRLIERSSSS
B5: il2ra_site1_3nfp_sap_24_mot_HHH_b2_06429_af2_000000115_0001_1_18_H_._HHH_b1_08445_af2_0001_0000100015_0000001_0_0001_af2pred_0001_af2pred_swapped (protein)
chain: SSSSDEVRRAQELAKEIQRLLREGDPEEARELLEELRELAKKANSRAAKRYVEELERRINSSSSS
B6: il2ra_site2_3nfp_normal_mot_HHH_b1_05918_af2_000000127_0001_23_40_H_._HHH_b2_01690_0001_0000300022_0000001_0 (protein)
chain: SSSSSELEEYLRAALLLLEEALEEGDEEAFRRHARLIKLLAETANDEEVREEVERLLEEFDSSSS
B7: il2ra_site2_3nfp_normal_mot_HHH_b2_01406_000000272_0001_41_55_H_._HHH_b2_00362_0001_0000600032_0000001_0 (protein)
chain: SSSSSDEEEEELEERLEKALEEGDKHLAAQLAAELSELLARLNDPETAVRLAVKVLEFVLSSSSS
B8: il2ra_site1_3nfp_sap_17_mot_HHH_b1_02637_af2_000000026_0001_1_18_H_._HHH_b1_04098_af2_0001_0000200016_0000001_0_0001 (protein)
chain: NRAKELAREALEKNDPELLREVLEMVREQARLPPEDAVKFVRLQLKWLGILTPELEEILRELLEK
B9: il2ra_site1_2b5i_sap_15_mot_417dcdf3126cc1de7a956bebb2b613e5_0001_1_000000286_0001_54_65_H_._dd49bf3528da6f37616b30d4057d0d98_0001_0001_0000100001_0000001_0_000 … (protein)
chain: SSSSDEKYDEIERLYKEALELWKQGKYEEAKEKLEKAIKLAEEAKDEVLLKDLKTLLERLKSSSS
B10: il2ra_site1_2b5i_sap_18_mot_0921d739bb7547bb6fa23329820ad62a_0001_000000012_0001_54_65_H_._HHH_b2_07807_0001_0000200011_0000001_0_0001 (protein)
chain: SSSSTERVKYIVRVVLRLAYRYNLSMEQMQELTELADELYQRGYSEEEIEEELEEKAKQLGSSSS
B11: il2ra_site1_3nfp_normal_mot_1dfc56a8f07a39e834a69883c800ee5d_0001_1_af2_000000099_0001_1_15_H_._b407ad934e5250b8240dbd3ef2c13209_0001_0001_0000300021_0000001_0 (protein)
chain: TAIVELILEAIEKNNEQDLRALRQLLERAEKRLPDPELRRLIELLIEAVEKKDPELVEEVRELVN
B12: il2ra_site2_3nfp_sap_23_mot_HHH_b2_08245_000000023_0001_41_55_H_._HHH_b2_07820_0001_0000400031_0000001_0_0001 (protein)
chain: SSSSEAEEYIRAALALAKEAAERNDPMAERHLELIRLMIESLGDEEAERLLEEIERLLRELSSSS
B13: il2ra_site1_1z92_sap_9_mot_HHH_b1_07916_af2_000000003_0001_3_15_H_._5d1becb6a9d54c9d42db3f0d03ab68b4_0001_0001_0000200028_0000001_0_0001 (protein)
chain: SSSSTREMARKAAEIVAEVIREFNLSDEEALELLKLADELLLNGYSEEEIKEILEELAHKSSSSS
B14: il2ra_site2_2erj_sap_19_mot_HHH_b2_01275_af2_000000073_0001_23_39_H_._HHH_b1_01063_af2_0001_0000200019_0000001_0_0001 (protein)
chain: SSSSDKLRELYELAVEVLRAVARGDEEEAERLLEEAKELAEELDSPNAREALENNKRLLKSSSSS
B15: il2ra_site1_3nfp_normal_mot_HHH_b1_03236_000000173_0001_17_33_H_._HHH_b1_06261_0001_0000400033_0000001_0 (protein)
chain: SSSSTEEEREASRLAQEIWELLKEGDKERVEELLEELEELAERLNDKVAEWFIRQVKELLSSSSS
B16: il2ra_site2_2erj_sap_31_mot_HHH_b1_06697_000000025_0001_41_54_H_._HHH_b2_04809_af2_0001_0000400004_0000001_0_0001 (protein)
chain: SSSSDEEERIEELVREIVEELGLSEEQRELLELAAKLAAERGLDEESIERLLRAYAELQRSSSSS
B17: il2ra_site2_3nfp_normal_mot_HHH_b2_07129_000000128_0001_19_36_H_._HHH_b1_05778_af2_0001_0000100001_0000001_0_af2pred_0001_1_af2pred_swapped (protein)
chain: SSSSDEEEEVERLLEKLEELVKRNDEEKFKRLAHKIAELIRELGDRRLFAILVEILLKFQRSSSS
B18: il2ra_site2_3nfp_sap_20_mot_HHH_b2_08245_000000272_0001_41_55_H_._787d21e84ebc3972f9e9a690c5e11347_0001_af2_0001_0000400015_0000001_0_0001 (protein)
chain: SDPELAELALELAEIWAAIHNDEELQEEVRELKEELEEAKKNNDEEKVERVAQLAAEIIERALES
B19: il2ra_site1_3nfp_sap_13_mot_HHH_b2_03549_000000219_0001_1_18_H_._HHH_b1_05723_af2_0001_0000600022_0000001_0_0001 (protein)
chain: SSSSSEIREEVEELLEEARRLMEEGNFREAVKVAEEAMRLAARAADDELDQLIMEWLRKLSSSSS

The assay has as its target il2ra, P01589. The assay is described as follows: yeast display titration.
As for B1, the “apparent Kd” value was “inactive: no binding seen”.

In the case of B2, the “apparent Kd” value is “inactive: no binding seen”.

Consider B3, for which the “apparent Kd” value is “inactive: no binding seen”.

For the molecule B4, the “apparent Kd” value is “inactive: no binding seen”.

On to B5, for which the “apparent Kd” value was “inactive: no binding seen”.

For the molecule B6, the “apparent Kd” value was “inactive: no binding seen”.

Take B7: the “apparent Kd” value is “inactive: no binding seen”.

For B8, the “apparent Kd” value was “inactive: no binding seen”.

For B9, the “apparent Kd” value is “inactive: no binding seen”.

B10: the “apparent Kd” value is “inactive: no binding seen”.

B11: the “apparent Kd” value was “inactive: no binding seen”.

In the case of B12, the “apparent Kd” value is “inactive: no binding seen”.

Turning to B13, the “apparent Kd” value was “inactive: no binding seen”.

Regarding B14, the “apparent Kd” value is “inactive: no binding seen”.

Turning to B15, the “apparent Kd” value was “inactive: no binding seen”.

As to B16, the “apparent Kd” value is “inactive: no binding seen”.

Take B17: the “apparent Kd” value was “inactive: no binding seen”.

Turning to B18, the “apparent Kd” value was “inactive: no binding seen”.

Regarding B19, the “apparent Kd” value is “inactive: no binding seen”.
